Data published in patent publication US10005809B2, “Bio-active antioxidants from plant foods for nutraceutical product development” (priority 2013, dated 2018).
Some results were stated once for a whole list of compounds, not compound by compound. At least one compound was matched to its structure with a doubt left.

Assay: Trolox Equivalents Antioxidant Capacity (TEAC) assay
Assay type: biochemical
Details: TEAC measurements
Experimental: Trolox Equivalents Antioxidant Capacity (TEAC) Assay of Compounds (1-11)
Pure compounds and standards (conc. Range 10-1000 μM) were reacted with the fixed concentration of ABTS (0.5 mM) according to the reported method. The decrease in absorbance at 734 nm was recorded 6 min after the addition of pro-formed ABTS radical solution. Standards including Trolox, quercetin, kaempferol and ascorbic acid were used for the comparison of structure-activity relationship with the isolated compounds. The calculation of TEAC values was obtained by plotting the graphs between various concentrations of compounds and percent radical scavenging activity. Slope (m) was then calculated by using the linear regression (y=mx+c) of the plotted curve. Ratio of the value of slope of Trolox with that of isolated compounds was calculated to get TEAC value as follows; TEACCompound=Slope of Trolox/Slope of compound (3)
The TEAC assay was used to assess the power of reduction of total amount of ABTS^•+ radicals formed during the reaction by bioactive metaboilite. The ABTS is intensely colored and when it reacts with antioxidant the color disappeared. […] In present procedure, the ratio of the slope of concentrations of standard and test compound is taken, therefore TEAC is considered as relative value with no unit. Trolox used as standard antioxidant with TEAC value as 1.

Row | Compound | antioxidant activity (in words)
1 | O=C(O)c1ccc(O)c(O)c1 [compound 9, 3,4-dihydroxybenzoic acid] | potent antioxidant activity
2 | myricetin 3-O-β-D-xyloside [compound 7] | potent antioxidant activity
3 | COc1cc(-c2oc3cc(O)cc(O[C@@H]4O[C@H](COC(=O)CC(C)(O)CC(=O)O)[C@@H](O)[C@H](O)[C@H]4O)c3c(=O)c2O)ccc1O (stereo partly drawn) [compound 1, isorhamnetol 5-O-[6″-(3-hydroxy-3-methyl glutarate)] β-D-glucoside] | potent antioxidant activity
4 | kaempferol 3-O-β-D-glucoside [compound 2] | potent antioxidant activity
